Screen size: about 200,000 compounds; about 25 (0.01%) were called active. Inconclusive means that the source gave no clear call. Such entries were picked first, then a sample of the others. The call rests on the fitted dose curve; in most records, active means well fitted inhibition curve with a large enough effect in the signal ratio, with a control signal flat (not every such curve was filed as active); inconclusive means small, poorly fitted or top-dose-only effect, or effect the other way, or a change in a side signal; inactive means flat fitted curve, though single readings scatter; the % refers to the signal ratio. A potency beside an inconclusive call is a rough fit, not a confirmed value.
Test: qHTS Assay for Modulators of Lamin A Splicing
Conditions: HeLa LMNA splicing GFP/RFP minigene ratio, 48 h; ratio change, negative = inhibition: at 46.1 µM (top of the series) unless noted
Source text: NCGC Assay Overview: Hutchinson-Gilford Progeria Syndrome (HGPS) is a pediatric premature aging disease caused by a spontaneous mutation in the lamin A/C (LMNA) gene. The mutation activates a cryptic splice site in the LMNA pre-mRNA which results in production of a pre-lamin A protein that cannot be processed properly. The mutant protein accumulates in the nucleus and negatively affects numerous cellular functions. Correction of the splicing defect in HGPS patient cells using a targeted oligonucleotide (exo11) leads to reversal of the cellular disease phenotypes. To identify small molecule modulators of aberrant LMNA splicing, a homogenous assay was constructed in HeLa cells that used a GFP containing minigene to report on correction of aberrant splicing in lamin A and a RFP (DsRed2) to report on cell viability, uniformity and nonspecific effects on the assay signal. This assay was adapted to laser-scanning microplate cytometry (Acumen, TTP Labtech) where miniaturization of the assay to a 1,536-well plate format was possible. References: Bowen, W. P.; Wylie, P. G. Application of Laser-Scanning Fluorescence Microplate Cytometry in High Content Screening. Assay Drug Dev Technol 2006;4:209-221. Scaffidi P, Misteli T. Reversal of the cellular phenotype in the premature aging disease Hutchinson-Gilford progeria syndrome. Nat.
NCGC Assay Protocol Summary: Reagents/Controls: Stable clones expressing DsRed2 and lamin A-EGFP were generated by Cell and Molecular Technologies in S3 HeLa cells. HeLa cells were prepared for the assay when they were 70-90% confluent. The cells were counted and resuspended in Opti-MEM I (no phenol red; Gibco), 2% FBS, 1% penicillin/ streptomycin (Gibco) at concentration of 120 cells/uL concentration. The suspension was passed through a Falcon basket filter with pore size 40um (Beckton Dickson). Control titrations: column […] 1536-well plate contained a sixteen point titration (1:2 dilutions) in duplicate of ancitabine (Sigma: A8598) beginning at 40 uM final concentration. Column 2 contained a sixteen point titration (1:2 dilutions) of cycloheximide beginning at 1.4 mM final concentration. Column 3 contained ancitabine at 40 uM and column 4 contained was the vehicle control (0.5% DMSO final concentration). Assay Steps: 5 uL of HeLa cells were plated in Aurora LoBase black clear bottom (cyclic-olefin polymer) 1536-well plates at a final density of 600 cells/well. Controls and library compounds were added with a 1536-well pin array using the Kalypsys pin-tool. The plates were then incubated for 48 hrs in a cell-culture incubator (37 °C; 5% CO2, 98% humidity). Following incubation the plates were read on the Acumen Explorer using the 488 nm laser. Data was collected on objects between 10 and 100 um in size. Cell objects were defined by a 15 um width x 10 um depth filter. The ratio of the total object intensity in PMT1 (500-530 nm emission; GFP) over PMT3 (575-640 nm emission; RFP) was calculated for analysis. Keywords: NIH Roadmap, MLSCN, MLI, MLSMR, qHTS, NCGC, lamin A, Progeria, RNA splicing.
On the % scale 0 is the no-effect control and ±100 the full control effect; potency means the concentration at half of the fitted maximal effect.

Structure (SMILES)	Potency	ratio change, negative = inhibition
Cc1c(Cl)cccc1NC(=S)NCc1ccccc1Cl	inconclusive: 35.5 µM [fluorescent, single point]	–
O=C(c1ccco1)N1CCN(c2ncnc3c2[nH]c2ccc(Cl)cc23)CC1	–	inconclusive: -34.3%
Cn1nc(C(=O)Oc2cc(=O)n(C)c3ccccc23)c2ccccc2c1=O	–	inconclusive: 35.9% [at 46 µM]
CCOC(=O)c1cnc2ccc(OCC)cc2c1N1CCN(c2ccccc2)CC1	–	inconclusive: -28.4%
CCCOC(=O)c1cccc(NC(=O)CSc2nnc3cc(C)c4ccccc4n23)c1	–	inconclusive: -7.75% [at 46 µM]
O=C1C2ON(c3ccccc3)C(c3ccccn3)C2C(=O)N1c1ccc(Br)cc1 (configuration not stated)	–	inactive: 1.9%
S=c1[nH]nc(-c2ccco2)n1/N=C/C=C/c1ccccc1	–	inactive: 3.87%
CCCCCCNC(=O)CCCCCNS(=O)(=O)c1ccc(OC)cc1	–	inconclusive: 0.473%
CCC(=O)OCC(=O)c1cc(C)n(-c2ccc(Br)cc2)c1C	–	inactive: -0.771% [at 46 µM]
N=c1c2c(-c3ccccc3)c(-c3ccccc3)oc2ncn1CCCN1CCOCC1	–	inconclusive: 13.5%
COc1cc(C(=O)N(Cc2cccnc2)c2nc3cc(C)c(C)cc3s2)cc(OC)c1OC	–	inconclusive: -5.48% [at 46 µM]
COc1cccc(-c2nc3n(n2)C(c2cccs2)C(C(=O)Nc2cccnc2)=C(C)N3)c1 (configuration not stated)	–	inconclusive: -35.5%
CC(C)(C)n1nc2c(c1NC(=O)c1ccc(S(=O)(=O)N3CCCC3)cc1)CSC2	–	inconclusive: 5.24%
O=C(/C=C\c1ccco1)Nc1cc([N+](=O)[O-])ccc1F	–	inconclusive: -19.9%
Cc1nn(-c2ccccc2)c(C)c1/C=N/n1c(-c2ccncc2)n[nH]c1=S	–	inconclusive: -37.4% [at 46 µM]
CC1Cc2ccccc2N1C(=O)CSc1nnc(NC(=O)Cc2cccs2)s1 (configuration not stated)	–	inactive: -2.04%
CCC(C(=O)Nc1ccc(C(=O)OC)cc1)n1nc(-c2ccc(C)c(C)c2)ccc1=O (configuration not stated)	–	inconclusive: -8.27% [at 46 µM]
CCC(=O)N1CCc2cc(Br)cc(S(=O)(=O)CCC(=O)NCc3ccco3)c21	–	inactive: 0.157%
COc1ccc(F)cc1S(=O)(=O)n1nnc2ccccc21	–	inconclusive: 13.3% [at 46 µM]
CCC(C(=O)NCc1cccnc1)c1ccccc1 (configuration not stated)	–	inconclusive: 8.78% [at 46 µM]
O=C(c1ccccc1)N1CCC(c2nc3c(nnn3Cc3ccco3)c(=O)[nH]2)CC1	–	inactive: 0.808%

Structure (SMILES)	Potency	ratio change, negative = inhibition
C[C@@H]1CCc2cc(F)cc3c(=O)c(C(=O)O)cn1c23	–	inconclusive: -29.2%
O=C(OCCN1CCCCC1)c1c[nH]c2ccccc12	–	inconclusive: -20%
O=C(NCC(c1cccnc1)N1CCc2ccccc21)c1ccc(F)cc1 (configuration not stated)	–	inconclusive: -10.7% [at 46 µM]
Cc1nn(-c2ccccc2)c(Cl)c1/C=N/Nc1nc2ccccc2n1C	inconclusive: 35.5 µM [fluorescent, single point]	–
CCOC(=O)c1[nH]c(C)c(C(=O)c2cc(F)ccc2F)c1C	–	inconclusive: 13.4%
CN(C)/C=C1\C(=O)N(c2ccc(Cl)cc2)CS1(=O)=O	–	inactive: -0.199%
CC(C(=O)NCc1ccccc1)N1C(=O)C2CC=C(Cl)CC2C1=O (configuration not stated)	inconclusive: 22.4 µM [fluorescent, single point]	–
CC(C)(CS(=O)(=O)[O-])NC(=O)CC[N+](C)(C)CCO	–	inactive: 2.91%
Cc1ccc(C)c(OCCn2cc(/C=C(\C#N)C(=O)NCC3CCCO3)c3ccccc32)c1 (configuration not stated)	–	inconclusive: -33.2%
CCCCNC(=O)C1CCCN1C(=O)Nc1cccc(OC)c1 (configuration not stated)	–	inconclusive: 37.5%
Cc1ccc(S(=O)(=O)N[C@H](C(=O)Oc2ccc3c(C(F)(F)F)cc(=O)oc3c2)c2ccccc2)cc1	–	inactive: 7.89%
N#CC(c1ccccn1)(c1ncc(C(F)(F)F)cc1Cl)N1CCOCC1 (configuration not stated)	–	inactive: 4.09%
COc1cc(-c2nc(CN(C)Cc3nnc(C)o3)c(C)o2)ccc1F	–	inconclusive: 12.8% [at 46 µM]
CN1CCN(c2nc(-c3ccncc3)nc3ccccc23)CC1	inconclusive: 17.8 µM [falling, partial curve]	–
O=C(CN(CC1CCCO1)S(=O)(=O)c1ccc(S(=O)(=O)NCC2CCCO2)cc1)Nc1ccccc1 (configuration not stated)	–	inconclusive: 5.98%
O=C(Nc1ccc(COc2ccccc2)cc1)Oc1ccccc1N1CCOCC1	–	inconclusive: -2.71% [at 46 µM]
CCCCN1C(=O)C(=Nc2cccc3cnccc23)c2ccccc21	–	inconclusive: 6.96% [at 46 µM]
O=C(N/N=C/c1cn(-c2cccs2)nc1-c1ccccc1)c1ccc(O)cc1	inconclusive: 35.5 µM [falling, single point]	–
CCC1CCCCN1C(=O)CCS(=O)(=O)c1cc2c(cc1C)NC(=O)CO2 (configuration not stated)	–	inconclusive: -17.8% [at 46 µM]
C=C(C)c1cccc(C(C)(C)NC(=O)N2CCC(C(N)=O)CC2)c1	–	inconclusive: -21.6% [at 9.22 µM]
CC1CCCC(C)N1/N=C/C=C/c1ccccc1[N+](=O)[O-] (configuration not stated)	–	inactive: -15.5% [at 46 µM]

Random excerpt: 2 records from the list, in no set order.
Structure (SMILES)	Potency	ratio change, negative = inhibition
CC1Cc2ccccc2N1C(=O)CSc1nnc(NC(=O)Cc2cccs2)s1 (configuration not stated)	–	inactive: -2.04%
Cn1nc(C(=O)Oc2cc(=O)n(C)c3ccccc23)c2ccccc2c1=O	–	inconclusive: 35.9% [at 46 µM]

Going on with the list.

Structure (SMILES)	Potency	ratio change, negative = inhibition
O=C(CCCSc1nc2ccccc2[nH]1)N1CCN(c2ccc([N+](=O)[O-])cc2)CC1	inconclusive: 15.8 µM [falling, single point]	–
Cc1oc2cc(O)ccc2c(=O)c1Oc1ccccc1Br	–	inconclusive: -13.2%
c1ccc(Sc2cnc3ccccc3n2)cc1	–	inactive: 1.43%
C=C(C)COc1ccc(-c2n[nH]c(C)c2-c2ccccc2)c(O)c1	–	inconclusive: -35.2%
N#CCCN1CCN(C(=S)c2ccc(-c3ccc(Cl)cc3)o2)CC1	–	inconclusive: 10.1%
CCn1cc(C(=O)OCC(=O)c2cc(C)n(-c3ccc(OC(F)F)cc3)c2C)c(=O)c2ccc(C)nc21	–	inactive: 0.518%
COC(=O)Cn1c(=O)oc2ccc(C)cc21	–	inconclusive: 27% [at 46 µM]
O=C(CCl)Nc1cc(S(=O)(=O)N2CCCCCC2)ccc1Cl	–	inconclusive: -30.8%
CCC(CC)C(=O)Nc1cc(Cl)ccc1C	–	inconclusive: 15.2% [at 46 µM]
CC(C)(C)OC(=O)N1CCC[C@H]1c1nnc(SCc2ccccc2F)o1	–	inactive: 9.35%
CC(NC(=O)C1CCC1)c1ccc2c(c1)OCO2 (configuration not stated)	–	inactive: 3.99%
Cc1ccc(-c2csc3ncnc(Nc4ccc(N5CCOCC5)cc4)c23)cc1	–	inactive: -3.93%
CCOC(=O)C1=C(C)N(C)C(C)=C(C(=O)OCC)C1c1ccc(Cl)cc1	–	inconclusive: -29.2%
Cc1c(Br)cc(-c2nnco2)cc1Br	–	inconclusive: 35.8%
O=C(Nc1nc(N2C(=O)c3ccccc3C2=O)n(-c2ccccc2)n1)c1ccc(Cl)cc1	–	inconclusive: -11.7%
CCCc1c(OCCCOc2ccc(OCC(=O)O)cc2)ccc(C(C)=O)c1O	–	inconclusive: 13.8%
Cc1c(NC(=O)C23CC4CC(CC(C)(C4)C2)C3)c(=O)n(-c2ccccc2)n1C	–	inactive: 7.1%
Cc1cc(CSc2ccccc2)ccc1NC(=O)COc1ccccc1	–	inactive: 5.47%
CC(NC(=O)Nc1ccccc1F)C(C)(C)C (configuration not stated)	–	inconclusive: 7.45% [at 46 µM]
O=c1c2cc(N3CCOCC3)ccc2[nH]c(=S)n1Cc1ccccn1	–	inactive: 5.98%
CN(Cc1nc(-c2cccnc2)no1)S(=O)(=O)c1ccc2ccccc2c1	–	inconclusive: -15.8%

Laid out differently: 3 of the compounds above
Structure (SMILES) | Potency | ratio change, negative = inhibition
COc1cc(C(=O)N(Cc2cccnc2)c2nc3cc(C)c(C)cc3s2)cc(OC)c1OC | – | inconclusive: -5.48% [at 46 µM]
O=C(NCC(c1cccnc1)N1CCc2ccccc21)c1ccc(F)cc1 (configuration not stated) | – | inconclusive: -10.7% [at 46 µM]
Cc1c(Br)cc(-c2nnco2)cc1Br | – | inconclusive: 35.8%

Continued:

Structure (SMILES)	Potency	ratio change, negative = inhibition
CC(=O)Nc1ccc(C(=O)Nc2ccc3c(c2)N(C2CCCC2)C(=O)c2ccccc2S3)cc1	inconclusive: 5.62 µM [inhibitor, full curve, poor fit]	–
Clc1ccccc1CN1CCc2nc(N3CCN(c4ncccn4)CC3)ncc2C1	–	inactive: 12.1% [at 46 µM]
Cc1nnc(N2CCC(C(=O)NC(C)C)CC2)c2nn(-c3ccccc3)c(C)c12	inconclusive: 6.31 µM [activator, partial curve, poor fit]	–
CCOc1ccc(CN(Cc2ccco2)S(=O)(=O)c2ccc(-n3cnnn3)c(OC)c2)cc1	inconclusive: 15.8 µM [fluorescent, single point]	–
Cc1cc(C(=O)NCC(c2ccco2)N(C)C)no1 (configuration not stated)	–	inactive: -8.17%
O=C(NCCc1ccc(F)cc1)c1cc(-c2ccncc2)nc2ccccc12	–	inconclusive: -19.3% [at 46 µM]
Cc1ccc(C)c(NS(=O)(=O)c2ccc(NC(=O)CSc3ccc(Cl)cc3)cc2)c1	–	inconclusive: -9%
O=c1c2ccccc2[nH]c(=S)n1CCN1CCC(=C(c2ccc(F)cc2)c2ccc(F)cc2)CC1	–	inconclusive: -55.5%
O=C(CSc1nc(-c2ccccc2)nc2cc(=O)[nH]n12)Nc1ccccc1	–	inconclusive: -14.9% [at 46 µM]
C/C(=N\OCC(=O)N/N=C/c1ccc(C)cc1O)c1cccs1	inconclusive: 35.5 µM [cytotoxic, single point]	–
Cc1ccc(/C([O-])=C(/C(=S)NCc2ccccc2)[n+]2cccc(CO)c2)cc1[N+](=O)[O-]	–	inconclusive: -7.26% [at 46 µM]
Cc1n[nH]c(=S)n1/N=C/c1ccccc1	–	inactive: 6.14%
COc1ccc(CC(=O)Nc2cc(C)on2)cc1OC	–	inactive: -10.5%
Cn1c(/C=C/c2cccc([N+](=O)[O-])c2)nc2ccccc2c1=O	–	inconclusive: -15.2% [at 46 µM]
Cc1ccc(S(=O)(=O)/N=C(\CN2CCOCC2)N2CCCC2)cc1	–	inactive: 0.567%
O=C(Cc1ccccc1)N1CCN(C(=O)c2ccc([N+](=O)[O-])cc2)CC1	–	inconclusive: 8.82% [at 46 µM]
Cc1ccc(-n2nc(C)c3nc(CCC(=O)Nc4cccc(F)c4)c(=O)n(C)c32)cc1	–	inactive: -9.81% [at 46 µM]
Cc1cc(-c2ccccc2)nc(SCC(=O)N2CCCC2)n1	–	inactive: -0.227% [at 46 µM]
O=C(Nc1nc(-c2ccccc2)cs1)c1cccs1	–	inconclusive: -33.1%

— PubChem BioAssay AID1487 (National Center for Advancing Translational Sciences (NCATS), 2009)
